Source: paper doi:10.1101/2023.02.01.526621 (bioRxiv, 2023)
These are yes or no findings as the source states them, for the method shown. Some entries that bind do so weakly or less than the wild type. Where a sequence is shown, tags or fusion partners need not be part of it.

Target: T1, GST-CESA3CD (catalytic domain of cellulose synthase CESA3 fused to GST) (Arabidopsis thaliana) (UniProt Q941L0)
T1 sequence: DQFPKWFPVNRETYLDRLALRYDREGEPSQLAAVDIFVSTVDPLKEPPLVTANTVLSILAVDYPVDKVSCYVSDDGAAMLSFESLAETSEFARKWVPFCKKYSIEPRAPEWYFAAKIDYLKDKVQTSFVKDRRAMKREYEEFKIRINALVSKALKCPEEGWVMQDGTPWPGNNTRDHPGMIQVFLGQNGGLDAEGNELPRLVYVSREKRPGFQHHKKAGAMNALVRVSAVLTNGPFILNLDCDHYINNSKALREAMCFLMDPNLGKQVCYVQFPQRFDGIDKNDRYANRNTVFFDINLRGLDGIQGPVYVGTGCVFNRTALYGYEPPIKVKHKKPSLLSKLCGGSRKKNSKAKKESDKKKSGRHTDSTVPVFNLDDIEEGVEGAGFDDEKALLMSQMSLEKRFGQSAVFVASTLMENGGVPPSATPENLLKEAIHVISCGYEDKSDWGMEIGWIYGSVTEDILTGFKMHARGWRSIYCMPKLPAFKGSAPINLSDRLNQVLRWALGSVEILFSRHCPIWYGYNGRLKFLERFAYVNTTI
Test: pull-down

binding: binds
B1: His-CPK32-K (kinase domain of CPK32) (domain or fragment, UniProt Q6NLQ6 63-321)
chain: YTLGRELGRGEFGVTYLCTDKETDDVFACKSILKKKLRTAVDIEDVRREVEIMRHMPEHPNVVTLKETYEDEHAVHLVMELCEGGELFDRIVARGHYTERAAAAVTKTIMEVVQVCHKHGVMHRDLKPENFLFGNKKETAPLKAIDFGLSVFFKPGERFNEIVGSPYYMAPEVLKRNYGPEVDIWSAGVILYILLCGVPPFWAETEQGVAQAIIRSVLDFRRDPWPKVSENAKDLIRKMLDPDQKRRLTAQQVLDHPWL
